# Measured values published in the supplement of paper PMC8104966.
# This is one part of the list. Single values are uncertain here, since repeats match poorly.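 Fusion between ACE2-bearing and full-length-spike-bearing U2OS cells was measured by imaging as the percentage of nuclei with both cell types' fluorescent markers. An inhibitory hit is a non-toxic compound whose fusion z-score is below -3, more than three standard deviations beneath the plate's DMSO wells.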
# Test system: U2OS ACE2 x SARS-CoV-2 spike co-culture
# Assay: cell-cell fusion (fraction fused) z-score vs plate DMSO control; higher = more fusion
# Settings: 30 µM; 5 h; toxicity class: non-toxic, passed QC
row,SMILES,cell-cell fusion (z-score)
1,CC[C@@H](C)[C@H]1O[C@]2(CC[C@@H]1C)C[C@@H]1C[C@@H](C/C=C(\C)[C@@H](O[C@H]3C[C@H](OC)[C@@H](O[C@H]4C[C@H](OC)[C@@H](O)[C@H](C)O4)[C@H](C)O3)[C@@H](C)/C=C/C=C3\CO[C@@H]4[C@H](O)C(C)=C[C@@H](C(=O)O1)[C@]34O)O2 [Ivermectin],inactive: 2.63
2,CCN(CC)CCCN(c1ccccc1)C1Cc2ccccc2C1.Cl [Aprindine hydrochloride],inactive: -2.65
3,C[C@]12C=CC(=O)N[C@@H]1CC[C@@H]1[C@@H]2CC[C@]2(C)[C@@H](C(=O)Nc3cc(C(F)(F)F)ccc3C(F)(F)F)CC[C@@H]12 [Dutasteride],inactive: 2.26
4,COc1ccccc1OCCNCC(O)COc1cccc2[nH]c3ccccc3c12.COc1ccccc1OCCNCC(O)COc1cccc2[nH]c3ccccc3c12.O.O=P(O)(O)O.O=P(O)(O)O (stereo not drawn) [Carvedilol phosphate],inactive: -1.55
5,Cc1ccc(Nc2nccc(N(C)c3ccc4c(C)n(C)nc4c3)n2)cc1S(N)(=O)=O.Cl,active: -6.09
6,C[Se]CCC(N)C(=O)O (stereo not drawn) [Selenomethionine],inactive: 0.809
7,C[C@H](N)Cc1cccc(C(F)(F)F)c1.Cl [(+)-Norfenfluramine hydrochloride],inactive: 2.73
8,Cc1ccc2c(Br)cc(Br)c(OC(=O)c3ccccc3)c2n1,inactive: 1.53
9,CC1(C)NC(=O)N(c2ccc([N+](=O)[O-])c(C(F)(F)F)c2)C1=O,inactive: 3.41
10,CC1(C)NC(=O)N(c2ccc([N+](=O)[O-])c(C(F)(F)F)c2)C1=O [Nilutamide],inactive: 1.07
11,O=C(OOC(=O)c1ccccc1)c1ccccc1,inactive: 1.73
12,CC1CCN=C(N)S1.Cl (racemic) [(±)-AMT hydrochloride],inactive: 2.37
13,CC(=O)N1CCN(c2ccc(OC[C@H]3CO[C@](Cn4ccnc4)(c4ccc(Cl)cc4Cl)O3)cc2)CC1 [Ketoconazole],inactive: 2.17
14,CCn1cc(C(=O)O)c(=O)c2cc(F)c(N3CCNC(C)C3)c(F)c21 (stereo not drawn) [Lomefloxacin],inactive: 2.87
15,COc1ccc2cc(-c3[nH]c(-c4ccc(S(C)=O)cc4)nc3-c3ccncc3)ccc2c1 (stereo not drawn) [Tie2 kinase inhibitor],inactive: 1.67
16,C[C@@H]1C[C@@H]([C@H](O)CC2CC(=O)NC(=O)C2)C(=O)[C@@H](C)C1,inactive: 1.74
17,C[C@H]1[C@H]2CCC3C4CC=C5C[C@@H](N(C)C)CC[C@]5(C)C4CC[C@@]32CN1C (stereo partly drawn),inactive: 1.47
18,COc1cc2ccc(=O)oc2c2ccoc12,inactive: 1.8
19,CN(C/C=C/c1ccccc1)Cc1cccc2ccccc12.Cl [Naftifine hydrochloride],inactive: 4.29
20,CC[C@@H]1C(=O)OC[C@@H]1Cc1cncn1C.Cl [(+)-Pilocarpine hydrochloride],inactive: 2.24
21,COc1cc2c(cc1OC)-c1c/c(=N\c3c(C)cc(C)cc3C)n(C)c(=O)n1CC2.Cl [Trequinsin hydrochloride],active: -5.31
22,CC(C)C[C@H](NC(=O)[C@H](O)[C@H](N)Cc1ccccc1)C(=O)O.Cl [Epibestatin hydrochloride],inactive: 1.61

row,SMILES,cell-cell fusion (z-score)
1,CCCCCCCCCCC[C@@H](C[C@H]1OC(=O)[C@H]1CCCCCC)OC(=O)[C@@H](CC(C)C)NC=O,inactive: 2.55
2,Oc1ccc2ccccc2c1SSc1c(O)ccc2ccccc12,inactive: 1.25
3,CC(C)[C@H](C(=O)Nc1ccc(C(=O)NO)cc1)c1ccccc1,inactive: 1.3
4,CO[C@H]1/C=C/O[C@@]2(C)Oc3c(C)c(O)c4c([O-])c(cc(O)c4c3C2=O)NC(=O)/C(C)=C\C=C\[C@H](C)[C@H](O)[C@@H](C)[C@@H](O)[C@@H](C)[C@H](OC(C)=O)[C@@H]1C.[Na+] [Rifamycin sodium salt],inactive: 0.81
5,CC[C@H](C)C(=O)O[C@H]1C[C@H](O)C=C2C=C[C@H](C)[C@H](CC[C@@H](O)C[C@@H](O)CC(=O)[O-])[C@H]21.[Na+] [Pravastatin sodium],inactive: 4.02
6,Oc1nc(-c2ccc(C(F)(F)F)cc2)nc2c1CSCC2,inactive: 0.727
7,"NC(=O)CNCCC(c1ccccc1)c1ccccc1 [N-(3,3-Diphenylpropyl)glycinamide]",inactive: 2.71
8,COc1ccc(C(=O)c2ccc(C)cc2)c(O)c1,inactive: 0.393
9,C#CCN(C)C(C)Cc1ccccc1.Cl (stereo not drawn),inactive: -2.34
10,COc1ccc(-c2coc3c(O)c(O)c(OC)cc3c2=O)cc1,inactive: 2.14
11,CC(N/C(=N/C#N)Nc1ccncc1)C(C)(C)C (stereo not drawn),inactive: 2.58
12,NC(=O)c1ccc(N(C(N)=O)c2c(F)cccc2F)nc1-c1ccc(F)cc1F,inactive: 1.44
13,C=CCN=C=S,inactive: 1.5
14,N=C(N)NOCC[C@H](N)C(=O)O.O=S(=O)(O)O [L-Canavanine sulfate],inactive: -2.71
15,NNC(=O)c1ccncc1.Nc1ccc(C(=O)O)c(O)c1,inactive: 3.12
16,Cc1cccc(CN2CCN(C(c3ccccc3)c3ccc(Cl)cc3)CC2)c1.Cl.Cl (stereo not drawn) [Meclizine dihydrochloride],inactive: 0.237
17,CC1=CCc2c(cc3oc(C)cc(=O)c3c2O)OC1,inactive: 1.52
18,Cc1nc2n(c(=O)c1CCN1CCC(c3noc4cc(F)ccc34)CC1)CCC[C@H]2O,inactive: 1.32
19,Cc1cccc(Nc2ccccc2C(=O)O)c1C,inactive: 1.99
20,Fc1ccc2[nH]c(CN3CCN(c4ccccn4)CC3)cc2c1,inactive: 2.96
21,CNCC(O)c1ccc(OC(=O)C(C)(C)C)c(OC(=O)C(C)(C)C)c1.Cl (stereo not drawn) [Dipivefrin hydrochloride],active: -3.29

# For convenience, part of the list above:
row,SMILES,cell-cell fusion (z-score)
3,CC(C)[C@H](C(=O)Nc1ccc(C(=O)NO)cc1)c1ccccc1,inactive: 1.3
4,CO[C@H]1/C=C/O[C@@]2(C)Oc3c(C)c(O)c4c([O-])c(cc(O)c4c3C2=O)NC(=O)/C(C)=C\C=C\[C@H](C)[C@H](O)[C@@H](C)[C@@H](O)[C@@H](C)[C@H](OC(C)=O)[C@@H]1C.[Na+] [Rifamycin sodium salt],inactive: 0.81
5,CC[C@H](C)C(=O)O[C@H]1C[C@H](O)C=C2C=C[C@H](C)[C@H](CC[C@@H](O)C[C@@H](O)CC(=O)[O-])[C@H]21.[Na+] [Pravastatin sodium],inactive: 4.02
